This passage reports binding results from paper PMC8241994.

These are yes or no findings as the source states them, for the method shown. Binding seen in cells or lysates may run through a third protein.

The target in the assay is T1, Terminal uridyltransferase 7 (not stated (human or mouse cDNA cloned)) (UniProt Q5VYS8).
T1 sequence: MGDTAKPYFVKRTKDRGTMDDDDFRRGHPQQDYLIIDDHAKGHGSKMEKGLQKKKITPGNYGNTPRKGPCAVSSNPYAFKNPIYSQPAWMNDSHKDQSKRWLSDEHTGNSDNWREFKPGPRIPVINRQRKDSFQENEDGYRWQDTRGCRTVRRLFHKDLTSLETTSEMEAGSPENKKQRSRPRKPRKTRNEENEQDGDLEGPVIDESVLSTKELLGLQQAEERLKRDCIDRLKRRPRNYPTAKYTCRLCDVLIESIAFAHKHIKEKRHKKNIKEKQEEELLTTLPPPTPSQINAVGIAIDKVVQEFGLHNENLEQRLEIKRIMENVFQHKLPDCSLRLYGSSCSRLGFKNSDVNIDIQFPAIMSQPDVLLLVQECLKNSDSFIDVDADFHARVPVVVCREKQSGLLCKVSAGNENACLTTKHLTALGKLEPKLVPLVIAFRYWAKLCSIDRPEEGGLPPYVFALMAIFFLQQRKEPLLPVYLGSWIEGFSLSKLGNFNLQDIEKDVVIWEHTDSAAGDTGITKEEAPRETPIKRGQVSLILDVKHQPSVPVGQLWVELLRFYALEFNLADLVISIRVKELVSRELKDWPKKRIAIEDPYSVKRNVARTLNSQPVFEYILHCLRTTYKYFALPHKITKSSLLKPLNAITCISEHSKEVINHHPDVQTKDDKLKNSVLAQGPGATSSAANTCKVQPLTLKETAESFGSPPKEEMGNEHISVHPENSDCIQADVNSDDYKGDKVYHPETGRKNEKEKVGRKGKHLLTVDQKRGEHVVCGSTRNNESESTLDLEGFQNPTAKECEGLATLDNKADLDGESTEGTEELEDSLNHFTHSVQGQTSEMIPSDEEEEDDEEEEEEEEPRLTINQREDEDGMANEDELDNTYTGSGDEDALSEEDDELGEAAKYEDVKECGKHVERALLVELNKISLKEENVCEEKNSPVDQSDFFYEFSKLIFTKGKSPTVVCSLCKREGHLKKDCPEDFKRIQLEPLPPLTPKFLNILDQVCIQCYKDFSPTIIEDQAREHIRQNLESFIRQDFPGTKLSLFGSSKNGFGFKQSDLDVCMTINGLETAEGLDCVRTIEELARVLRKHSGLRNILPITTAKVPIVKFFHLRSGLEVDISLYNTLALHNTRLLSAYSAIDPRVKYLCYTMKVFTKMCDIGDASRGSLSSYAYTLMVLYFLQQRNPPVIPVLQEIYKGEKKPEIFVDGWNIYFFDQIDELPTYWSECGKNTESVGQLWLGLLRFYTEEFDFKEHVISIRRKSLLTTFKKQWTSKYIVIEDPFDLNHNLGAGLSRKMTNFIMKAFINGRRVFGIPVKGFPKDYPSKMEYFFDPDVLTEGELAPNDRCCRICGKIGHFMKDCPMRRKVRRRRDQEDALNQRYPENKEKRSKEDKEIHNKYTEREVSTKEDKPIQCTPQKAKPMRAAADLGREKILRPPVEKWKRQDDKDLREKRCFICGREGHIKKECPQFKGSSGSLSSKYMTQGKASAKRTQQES
As to the kind of experiment: co-IP; cell extracts in APB lysis buffer incubated with antibody and Protein A-conjugated agarose beads overnight at 4 °C, washed three times, immunoblotting; TUT7 precipitated, Regnase-1 probed; cells and constructs only in Supplementary Fig. 8a, b. (A western blot detects proteins with antibodies after separation by electrophoresis.)

Take Regnase-1 (enzyme): the binding result is on record as “no binding”.
